# Measured values taken from the supplement of paper PMC6411743.
# ± gives the standard deviation of the averaged measurements. This is a selection; strong and weak results do not stand in their true shares.
# Legend:
# Assay in all cases: NP40-soluble protein abundance relative to vehicle (solubility fold change) (ratio); higher = more soluble protein in presence of AMP-PNP
# [1] = target: T1, A0A087WW65|O75027 and related entries (UniProt O75027)
# T1 sequence (whole entry): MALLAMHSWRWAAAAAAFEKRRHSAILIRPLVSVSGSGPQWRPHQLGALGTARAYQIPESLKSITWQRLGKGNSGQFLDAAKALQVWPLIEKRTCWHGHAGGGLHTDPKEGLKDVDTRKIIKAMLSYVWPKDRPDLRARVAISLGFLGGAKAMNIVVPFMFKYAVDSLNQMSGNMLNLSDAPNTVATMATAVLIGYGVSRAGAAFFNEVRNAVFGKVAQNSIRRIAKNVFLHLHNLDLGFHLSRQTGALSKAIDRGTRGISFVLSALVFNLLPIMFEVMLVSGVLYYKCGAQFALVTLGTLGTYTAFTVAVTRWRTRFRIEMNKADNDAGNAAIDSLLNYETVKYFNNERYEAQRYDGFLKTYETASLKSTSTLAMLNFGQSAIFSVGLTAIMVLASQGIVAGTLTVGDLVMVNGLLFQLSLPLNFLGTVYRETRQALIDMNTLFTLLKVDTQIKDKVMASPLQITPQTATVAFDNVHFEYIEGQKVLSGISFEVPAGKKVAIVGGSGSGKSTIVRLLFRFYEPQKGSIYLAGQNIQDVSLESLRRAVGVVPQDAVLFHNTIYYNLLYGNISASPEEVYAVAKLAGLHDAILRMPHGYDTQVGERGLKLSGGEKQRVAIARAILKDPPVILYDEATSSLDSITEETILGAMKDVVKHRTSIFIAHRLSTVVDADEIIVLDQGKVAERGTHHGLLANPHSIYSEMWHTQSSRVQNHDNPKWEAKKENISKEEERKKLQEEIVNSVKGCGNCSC
# Summary of the method: (§1)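 Eight concentrations, 0.1 to 10 mM, were tested on Jurkat crude lysate for 10 min at room temperature and then 3 min at 37 °C, in three independent experiments. The lysate was solubilised with 0.8% NP40 and benzonase, ultracentrifuged, and the supernatant TMT-labelled for LC-MS/MS. Each value is the fold change against the detergent-processed vehicle in its own replicate, from vsn-normalised intensities.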
# [2] = target: T2, A0A087WXR2|F5H1Z6 and related entries (UniProt Q9Y365)
# T2 sequence (whole entry): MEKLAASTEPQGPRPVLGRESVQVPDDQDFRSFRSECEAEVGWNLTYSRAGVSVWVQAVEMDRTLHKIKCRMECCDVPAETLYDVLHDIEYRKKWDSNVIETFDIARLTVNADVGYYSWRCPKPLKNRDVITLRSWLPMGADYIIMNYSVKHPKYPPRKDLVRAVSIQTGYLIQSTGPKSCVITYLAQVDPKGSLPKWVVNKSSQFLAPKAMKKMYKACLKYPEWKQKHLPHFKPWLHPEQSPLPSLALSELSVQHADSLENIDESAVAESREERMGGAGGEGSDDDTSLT
# Summary of the method: as §1
# [3] = target: T3, A0A087X060|G3V2W9 and related entries (UniProt Q56P03)
# T3 sequence (whole entry): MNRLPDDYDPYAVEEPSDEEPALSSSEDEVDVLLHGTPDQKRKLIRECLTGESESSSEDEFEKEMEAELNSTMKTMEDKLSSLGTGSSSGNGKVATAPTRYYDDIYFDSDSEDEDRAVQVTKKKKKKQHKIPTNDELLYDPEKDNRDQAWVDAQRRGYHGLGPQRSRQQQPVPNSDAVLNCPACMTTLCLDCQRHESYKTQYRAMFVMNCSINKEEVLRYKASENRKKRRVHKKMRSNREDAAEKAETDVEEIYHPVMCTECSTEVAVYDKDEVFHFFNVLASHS
# Summary of the method: as §1
# [4] = target: T4, A0A087X0R6|Q9UMY4 and related entries (UniProt Q9UMY4)
# T4 sequence (whole entry): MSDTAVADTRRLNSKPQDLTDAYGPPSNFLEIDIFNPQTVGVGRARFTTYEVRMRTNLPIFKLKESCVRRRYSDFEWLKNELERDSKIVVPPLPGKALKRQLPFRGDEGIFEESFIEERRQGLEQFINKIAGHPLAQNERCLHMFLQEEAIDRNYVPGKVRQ
# Summary of the method: as §1
# [5] = target: T5, A0A087X117|A0A0G2JN29|Q15155 (UniProt Q15155)
# T5 sequence (whole entry): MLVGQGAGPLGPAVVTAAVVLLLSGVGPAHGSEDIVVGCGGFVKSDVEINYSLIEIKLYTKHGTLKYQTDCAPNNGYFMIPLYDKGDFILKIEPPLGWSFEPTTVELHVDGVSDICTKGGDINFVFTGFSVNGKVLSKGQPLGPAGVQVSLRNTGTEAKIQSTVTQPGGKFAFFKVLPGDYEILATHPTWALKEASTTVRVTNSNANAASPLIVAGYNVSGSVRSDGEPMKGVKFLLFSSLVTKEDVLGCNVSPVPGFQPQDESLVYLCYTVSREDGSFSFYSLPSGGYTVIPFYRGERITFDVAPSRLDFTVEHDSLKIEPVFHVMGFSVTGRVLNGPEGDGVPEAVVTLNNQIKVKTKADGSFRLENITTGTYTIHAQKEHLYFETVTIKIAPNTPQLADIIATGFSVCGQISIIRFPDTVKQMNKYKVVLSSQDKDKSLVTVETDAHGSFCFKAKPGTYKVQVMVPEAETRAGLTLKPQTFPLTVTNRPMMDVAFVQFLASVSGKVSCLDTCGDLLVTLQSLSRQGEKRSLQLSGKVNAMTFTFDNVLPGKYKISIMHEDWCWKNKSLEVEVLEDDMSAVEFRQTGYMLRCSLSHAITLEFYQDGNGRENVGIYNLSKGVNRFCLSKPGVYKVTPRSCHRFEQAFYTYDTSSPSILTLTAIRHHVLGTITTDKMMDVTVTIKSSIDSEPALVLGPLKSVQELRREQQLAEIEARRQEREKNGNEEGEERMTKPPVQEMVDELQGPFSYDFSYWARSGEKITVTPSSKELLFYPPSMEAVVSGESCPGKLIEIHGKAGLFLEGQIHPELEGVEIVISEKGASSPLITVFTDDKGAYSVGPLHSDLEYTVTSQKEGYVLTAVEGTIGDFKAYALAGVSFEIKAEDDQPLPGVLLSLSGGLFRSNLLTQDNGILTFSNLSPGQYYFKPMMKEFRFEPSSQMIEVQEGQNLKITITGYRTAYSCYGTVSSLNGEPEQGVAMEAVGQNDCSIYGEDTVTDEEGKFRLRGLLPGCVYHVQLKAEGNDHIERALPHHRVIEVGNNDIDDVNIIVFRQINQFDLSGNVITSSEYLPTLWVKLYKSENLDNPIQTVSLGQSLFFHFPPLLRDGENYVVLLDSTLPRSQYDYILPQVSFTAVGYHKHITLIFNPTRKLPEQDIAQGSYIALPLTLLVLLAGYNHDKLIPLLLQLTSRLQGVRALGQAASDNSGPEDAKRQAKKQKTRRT
# Summary of the method: as §1
compound,measurement,setting,value
Nc1ncnc2c1ncn2[C@@H]1O[C@H](COP(=O)(O)OP(=O)(O)NP(=O)(O)O)[C@@H](O)[C@H]1O [adenylyl imidodiphosphate],NP40-soluble protein abundance,[1]; concentration: 1mM,1.03 ± 0.03
same,NP40-soluble protein abundance,[1]; concentration: 2mM,0.983 ± 0.032
same,NP40-soluble protein abundance,[1]; concentration: 4mM,1.004 ± 0.0085
same,NP40-soluble protein abundance,[1]; concentration: 6mM,0.97 ± 0.032
same,NP40-soluble protein abundance,[1]; concentration: 8mM,0.985 ± 0.02
same,NP40-soluble protein abundance,[1]; concentration: 10mM,0.956 ± 0.037
same,NP40-soluble protein abundance,[2]; concentration: 1mM,1.01 ± 0.039
same,NP40-soluble protein abundance,[2]; concentration: 2mM,1.02 ± 0.011
same,NP40-soluble protein abundance,[2]; concentration: 4mM,1.04 ± 0.025
same,NP40-soluble protein abundance,[2]; concentration: 6mM,1.05 ± 0.021
same,NP40-soluble protein abundance,[2]; concentration: 8mM,1.05 ± 0.065
same,NP40-soluble protein abundance,[2]; concentration: 10mM,1.08 ± 0.042
same,NP40-soluble protein abundance,[3]; concentration: 1mM,1.03 ± 0.048
same,NP40-soluble protein abundance,[3]; concentration: 2mM,1.02 ± 0.013
same,NP40-soluble protein abundance,[3]; concentration: 4mM,0.995 ± 0.03
same,NP40-soluble protein abundance,[3]; concentration: 6mM,0.989 ± 0.063
same,NP40-soluble protein abundance,[3]; concentration: 8mM,0.974 ± 0.01
same,NP40-soluble protein abundance,[3]; concentration: 10mM,1.01 ± 0.013
same,NP40-soluble protein abundance,[4]; concentration: 1mM,1.06 ± 0.029
same,NP40-soluble protein abundance,[4]; concentration: 2mM,1.11 ± 0.041
same,NP40-soluble protein abundance,[4]; concentration: 4mM,1.07 ± 0.059
same,NP40-soluble protein abundance,[4]; concentration: 6mM,1 ± 0.036
same,NP40-soluble protein abundance,[4]; concentration: 8mM,1.05 ± 0.034
same,NP40-soluble protein abundance,[4]; concentration: 10mM,1.02 ± 0.03
same,NP40-soluble protein abundance,[5]; concentration: 1mM,1.01 ± 0.016
same,NP40-soluble protein abundance,[5]; concentration: 2mM,1.03 ± 0.03
same,NP40-soluble protein abundance,[5]; concentration: 4mM,1 ± 0.02

# Two successive entries out of the list so far, quoted:
compound,measurement,setting,value
Nc1ncnc2c1ncn2[C@@H]1O[C@H](COP(=O)(O)OP(=O)(O)NP(=O)(O)O)[C@@H](O)[C@H]1O [adenylyl imidodiphosphate],NP40-soluble protein abundance,[3]; concentration: 8mM,0.974 ± 0.01
same,NP40-soluble protein abundance,[3]; concentration: 10mM,1.01 ± 0.013
